Test results taken from US11566057B2 (Merck Sharp & Dohme Corp., priority 2017, dated 2023).

Experiment: general procedure: Fmoc solid-phase peptide synthesis; Rink-amide PEG-PS resin (Champion, Biosearch Technologies, 0.28 mmol/g) or Rink-amide PS resin (ChemImpex 0.47 mmol/g); N; HATU/DIEA
Details: lipidation step

With HsQGTFTSDK(N3)SKYLDARAAQDFVQWLLDT-NH2 the “final purity (method not given)” value was 96% and the step yield was 9.06% yield.
